Results published in patent publication US20230303647A1 (priority 2020, published 2023).
Strings that start with PEPTIDE1 are HELM notation: dots part the residues, brackets hold end groups and non-standard residues.

Experiment: general procedure: Fmoc solid-phase peptide synthesis; Wang resin preloaded with the first amino acid unless stated otherwise (2-chlorotrityl chloride resin for homocysteine C); oxyma/DIC
Settings: for final HPLC purity: 220 nm
[1] = whole synthesis, scale of the general procedure 15 μmol

Substance	final HPLC purity [1]	isolated mass (whole synthesis)	isolated yield [1]	cyclisation yield (cyclisation step)	final HPLC purity (cyclisation step)
GFLGYFP[xQFAFC]	over 95%				
PEPTIDE1{[Tam].Y.F.P.[dC].Q.F.A.F.C}|CHEM1{[CH2]}$PEPTIDE1,CHEM1,5:R3-1:R1|PEPTIDE1,CHEM1,10:R3-1:R2$$$V2.0	over 95%	1.9 mg	11.1% of theory		
Tam-EG4-chemerin-9		4.8 mg	18.6% of theory		
Tam-EG(4)-YFP[xQFAFC]	over 95%				
Tam-EG(4)-YFP[xQFAWC]	over 95%				
Tam-YFP[c(CH2)QFAFX]	over 95%	1.8 mg	10.2% of theory		
Tam-YFP[cQFAFC]				31% of theory	over 95%
YFP[c(CH2)QFAFC]	over 95%	1.2 mg	5% of theory		
[c4,C7]-chemerin-9		1.9 mg	11.1% of theory		
[c4,C9]-chemerin-9		1.9 mg	11.1% of theory		
